Common to all, as to test: log2 fold change, soluble protein after heating vs DMSO (PISA); higher = thermal stabilisation; K562 lysate, 10 uM; active = over 0.2 and 3.5 SD of the protein, either way, in both replicates (recomputed)
Compound in assay [1]: NCC(=O)Nc1ccc(-n2nc(C(F)(F)F)cc2-c2ccc3c(ccc4ccccc43)c2)cc1
The procedure, abridged: (§1)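 The values are log-two fold changes in thermal stability compared with solvent controls and come from duplicates. They were obtained by TMTpro 16plex LC-MS/MS, with channel sums equalised, on the supernatant after 21,000xg for 90 min. That supernatant came from crude K562 extract at 1 mg/mL protein treated with 10 μM compound for 30 min, heated for 3 min across 48°C-58°C, pooled and brought to 0.5% NP-40 at 4°C.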

Amino acid sequences for entries named in this document (tags omitted). A change or cut given only in a name is not applied to a line headed by its entry.
UniProt O14950, whole entry, looked up: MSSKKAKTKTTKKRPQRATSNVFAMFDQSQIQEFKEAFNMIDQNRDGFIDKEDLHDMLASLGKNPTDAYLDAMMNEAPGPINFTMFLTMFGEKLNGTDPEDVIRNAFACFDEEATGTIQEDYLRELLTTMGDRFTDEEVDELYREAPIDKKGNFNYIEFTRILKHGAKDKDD
UniProt O00159, whole entry, looked up: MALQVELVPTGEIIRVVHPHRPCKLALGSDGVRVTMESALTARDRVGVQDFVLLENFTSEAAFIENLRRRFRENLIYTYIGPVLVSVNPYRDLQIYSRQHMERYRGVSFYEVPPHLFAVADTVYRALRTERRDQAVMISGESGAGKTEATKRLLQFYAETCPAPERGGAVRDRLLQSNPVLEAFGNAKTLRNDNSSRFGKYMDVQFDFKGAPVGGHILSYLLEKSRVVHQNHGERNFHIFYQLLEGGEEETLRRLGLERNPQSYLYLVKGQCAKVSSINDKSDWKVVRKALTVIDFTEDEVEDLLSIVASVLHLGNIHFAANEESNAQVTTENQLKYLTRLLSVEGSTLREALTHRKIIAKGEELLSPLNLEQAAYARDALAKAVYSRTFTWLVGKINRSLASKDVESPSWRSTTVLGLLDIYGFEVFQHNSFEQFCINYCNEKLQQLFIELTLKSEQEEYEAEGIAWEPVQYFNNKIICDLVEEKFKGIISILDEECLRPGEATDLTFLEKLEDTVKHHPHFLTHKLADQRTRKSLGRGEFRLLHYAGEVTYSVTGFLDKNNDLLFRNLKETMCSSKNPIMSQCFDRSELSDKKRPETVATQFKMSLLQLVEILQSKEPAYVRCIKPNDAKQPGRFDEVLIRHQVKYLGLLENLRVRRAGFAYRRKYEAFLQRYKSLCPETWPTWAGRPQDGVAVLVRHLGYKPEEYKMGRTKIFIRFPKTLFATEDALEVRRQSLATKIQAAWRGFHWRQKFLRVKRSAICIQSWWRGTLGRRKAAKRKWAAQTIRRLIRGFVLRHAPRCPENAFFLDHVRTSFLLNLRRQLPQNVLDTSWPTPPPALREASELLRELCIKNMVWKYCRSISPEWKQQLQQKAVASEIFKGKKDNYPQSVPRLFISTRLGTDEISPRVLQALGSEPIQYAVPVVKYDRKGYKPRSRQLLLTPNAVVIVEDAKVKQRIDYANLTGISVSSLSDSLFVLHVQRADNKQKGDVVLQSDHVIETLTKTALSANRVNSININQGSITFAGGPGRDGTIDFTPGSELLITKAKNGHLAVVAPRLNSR
UniProt Q96NT1: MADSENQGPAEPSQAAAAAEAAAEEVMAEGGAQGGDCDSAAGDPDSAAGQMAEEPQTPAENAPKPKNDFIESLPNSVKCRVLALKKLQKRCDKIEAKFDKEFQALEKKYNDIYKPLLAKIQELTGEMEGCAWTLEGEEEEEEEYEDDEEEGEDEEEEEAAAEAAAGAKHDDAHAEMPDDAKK
UniProt P18440: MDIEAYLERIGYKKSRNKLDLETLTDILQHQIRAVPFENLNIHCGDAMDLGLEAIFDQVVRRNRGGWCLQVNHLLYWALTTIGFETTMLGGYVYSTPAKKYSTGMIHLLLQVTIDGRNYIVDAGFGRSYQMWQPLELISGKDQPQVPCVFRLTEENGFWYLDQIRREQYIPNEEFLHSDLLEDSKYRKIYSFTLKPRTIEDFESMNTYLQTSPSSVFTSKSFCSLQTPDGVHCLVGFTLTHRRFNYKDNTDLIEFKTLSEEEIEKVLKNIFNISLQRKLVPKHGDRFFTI
UniProt O43639, whole entry, looked up: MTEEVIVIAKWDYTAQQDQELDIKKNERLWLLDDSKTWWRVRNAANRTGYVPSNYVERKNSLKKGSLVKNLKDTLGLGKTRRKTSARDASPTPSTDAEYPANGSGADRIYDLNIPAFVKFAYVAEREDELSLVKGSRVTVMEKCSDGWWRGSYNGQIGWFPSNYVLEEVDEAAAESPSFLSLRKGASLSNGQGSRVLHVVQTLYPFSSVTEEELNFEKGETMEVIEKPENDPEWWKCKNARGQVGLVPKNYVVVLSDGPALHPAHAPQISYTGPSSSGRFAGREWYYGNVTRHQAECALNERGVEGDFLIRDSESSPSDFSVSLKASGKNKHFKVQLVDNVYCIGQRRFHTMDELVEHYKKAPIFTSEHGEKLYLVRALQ
UniProt Q8IUG5: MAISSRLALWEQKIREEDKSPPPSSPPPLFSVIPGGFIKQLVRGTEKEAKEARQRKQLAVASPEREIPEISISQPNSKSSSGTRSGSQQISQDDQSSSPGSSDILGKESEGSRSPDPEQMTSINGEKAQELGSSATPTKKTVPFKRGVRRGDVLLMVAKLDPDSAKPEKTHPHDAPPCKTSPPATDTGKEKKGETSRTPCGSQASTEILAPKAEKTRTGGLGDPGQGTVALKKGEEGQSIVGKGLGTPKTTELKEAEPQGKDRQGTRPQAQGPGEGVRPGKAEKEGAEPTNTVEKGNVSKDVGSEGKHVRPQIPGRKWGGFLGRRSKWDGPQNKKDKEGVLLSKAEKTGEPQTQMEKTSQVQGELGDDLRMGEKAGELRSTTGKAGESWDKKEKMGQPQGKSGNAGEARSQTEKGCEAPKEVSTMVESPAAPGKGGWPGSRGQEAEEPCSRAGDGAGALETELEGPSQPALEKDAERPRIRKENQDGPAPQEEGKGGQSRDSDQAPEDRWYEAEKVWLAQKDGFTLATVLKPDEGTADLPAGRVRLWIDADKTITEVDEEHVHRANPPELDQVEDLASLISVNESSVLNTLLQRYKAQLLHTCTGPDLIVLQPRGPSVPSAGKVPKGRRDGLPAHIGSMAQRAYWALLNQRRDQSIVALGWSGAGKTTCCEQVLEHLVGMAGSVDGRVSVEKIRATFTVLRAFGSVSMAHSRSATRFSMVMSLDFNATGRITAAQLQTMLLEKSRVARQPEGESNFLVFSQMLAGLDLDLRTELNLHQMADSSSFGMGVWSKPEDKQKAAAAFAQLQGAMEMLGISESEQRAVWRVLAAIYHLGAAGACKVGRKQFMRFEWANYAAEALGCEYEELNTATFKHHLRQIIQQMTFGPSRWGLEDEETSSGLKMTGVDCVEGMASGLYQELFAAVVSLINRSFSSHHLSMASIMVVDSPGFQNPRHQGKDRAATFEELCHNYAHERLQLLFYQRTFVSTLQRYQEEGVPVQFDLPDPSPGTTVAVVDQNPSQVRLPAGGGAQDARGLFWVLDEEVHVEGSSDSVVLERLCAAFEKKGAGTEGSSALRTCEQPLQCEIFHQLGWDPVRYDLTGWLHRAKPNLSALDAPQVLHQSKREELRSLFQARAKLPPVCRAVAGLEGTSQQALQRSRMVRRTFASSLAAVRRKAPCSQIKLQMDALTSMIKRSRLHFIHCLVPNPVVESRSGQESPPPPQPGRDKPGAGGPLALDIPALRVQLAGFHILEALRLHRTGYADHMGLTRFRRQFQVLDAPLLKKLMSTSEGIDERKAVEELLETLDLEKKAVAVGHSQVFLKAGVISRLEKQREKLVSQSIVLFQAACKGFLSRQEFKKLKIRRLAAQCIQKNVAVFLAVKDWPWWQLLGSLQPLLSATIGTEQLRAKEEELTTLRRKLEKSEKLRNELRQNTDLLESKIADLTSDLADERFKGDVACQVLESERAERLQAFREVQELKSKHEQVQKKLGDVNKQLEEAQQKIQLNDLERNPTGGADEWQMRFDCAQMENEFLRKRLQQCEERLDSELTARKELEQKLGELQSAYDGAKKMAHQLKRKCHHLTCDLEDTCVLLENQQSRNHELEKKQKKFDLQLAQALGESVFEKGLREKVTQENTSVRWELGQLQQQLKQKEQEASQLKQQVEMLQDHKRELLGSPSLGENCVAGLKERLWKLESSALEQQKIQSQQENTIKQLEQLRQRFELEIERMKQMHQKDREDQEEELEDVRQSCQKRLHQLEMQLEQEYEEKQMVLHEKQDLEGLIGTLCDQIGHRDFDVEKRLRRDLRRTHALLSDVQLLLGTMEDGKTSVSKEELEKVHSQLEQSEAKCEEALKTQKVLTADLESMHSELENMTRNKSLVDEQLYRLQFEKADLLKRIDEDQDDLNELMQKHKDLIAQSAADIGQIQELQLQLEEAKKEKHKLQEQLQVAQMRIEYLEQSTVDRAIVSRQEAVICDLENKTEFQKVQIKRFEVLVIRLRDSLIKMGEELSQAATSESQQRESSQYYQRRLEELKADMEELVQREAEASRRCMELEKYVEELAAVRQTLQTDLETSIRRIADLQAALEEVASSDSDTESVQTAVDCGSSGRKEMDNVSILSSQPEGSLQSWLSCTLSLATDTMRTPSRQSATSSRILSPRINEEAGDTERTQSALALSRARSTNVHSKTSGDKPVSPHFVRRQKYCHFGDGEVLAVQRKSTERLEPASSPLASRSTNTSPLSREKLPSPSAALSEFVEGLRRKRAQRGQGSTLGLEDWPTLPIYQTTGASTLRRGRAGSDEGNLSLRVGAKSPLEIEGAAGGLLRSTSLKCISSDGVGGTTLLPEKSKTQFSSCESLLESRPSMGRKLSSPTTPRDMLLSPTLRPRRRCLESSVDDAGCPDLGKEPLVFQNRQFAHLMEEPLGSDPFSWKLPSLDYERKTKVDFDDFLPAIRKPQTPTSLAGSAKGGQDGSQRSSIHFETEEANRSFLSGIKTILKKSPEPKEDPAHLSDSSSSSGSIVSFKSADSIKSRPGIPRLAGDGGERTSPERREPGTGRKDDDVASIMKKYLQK
UniProt Q15742: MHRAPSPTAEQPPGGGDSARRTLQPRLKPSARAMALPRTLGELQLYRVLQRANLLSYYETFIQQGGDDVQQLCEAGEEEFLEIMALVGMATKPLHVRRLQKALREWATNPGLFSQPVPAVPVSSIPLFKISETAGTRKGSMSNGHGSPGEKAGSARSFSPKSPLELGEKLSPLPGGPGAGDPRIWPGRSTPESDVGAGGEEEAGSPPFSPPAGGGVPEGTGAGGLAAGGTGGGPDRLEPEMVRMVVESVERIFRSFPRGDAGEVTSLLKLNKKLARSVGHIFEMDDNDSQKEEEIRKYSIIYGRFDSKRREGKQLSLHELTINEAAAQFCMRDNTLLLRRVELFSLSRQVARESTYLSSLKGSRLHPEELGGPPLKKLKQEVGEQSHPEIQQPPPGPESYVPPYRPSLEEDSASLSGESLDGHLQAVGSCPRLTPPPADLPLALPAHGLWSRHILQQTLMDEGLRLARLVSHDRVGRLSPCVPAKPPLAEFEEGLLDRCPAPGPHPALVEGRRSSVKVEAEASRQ
UniProt Q9BQG0: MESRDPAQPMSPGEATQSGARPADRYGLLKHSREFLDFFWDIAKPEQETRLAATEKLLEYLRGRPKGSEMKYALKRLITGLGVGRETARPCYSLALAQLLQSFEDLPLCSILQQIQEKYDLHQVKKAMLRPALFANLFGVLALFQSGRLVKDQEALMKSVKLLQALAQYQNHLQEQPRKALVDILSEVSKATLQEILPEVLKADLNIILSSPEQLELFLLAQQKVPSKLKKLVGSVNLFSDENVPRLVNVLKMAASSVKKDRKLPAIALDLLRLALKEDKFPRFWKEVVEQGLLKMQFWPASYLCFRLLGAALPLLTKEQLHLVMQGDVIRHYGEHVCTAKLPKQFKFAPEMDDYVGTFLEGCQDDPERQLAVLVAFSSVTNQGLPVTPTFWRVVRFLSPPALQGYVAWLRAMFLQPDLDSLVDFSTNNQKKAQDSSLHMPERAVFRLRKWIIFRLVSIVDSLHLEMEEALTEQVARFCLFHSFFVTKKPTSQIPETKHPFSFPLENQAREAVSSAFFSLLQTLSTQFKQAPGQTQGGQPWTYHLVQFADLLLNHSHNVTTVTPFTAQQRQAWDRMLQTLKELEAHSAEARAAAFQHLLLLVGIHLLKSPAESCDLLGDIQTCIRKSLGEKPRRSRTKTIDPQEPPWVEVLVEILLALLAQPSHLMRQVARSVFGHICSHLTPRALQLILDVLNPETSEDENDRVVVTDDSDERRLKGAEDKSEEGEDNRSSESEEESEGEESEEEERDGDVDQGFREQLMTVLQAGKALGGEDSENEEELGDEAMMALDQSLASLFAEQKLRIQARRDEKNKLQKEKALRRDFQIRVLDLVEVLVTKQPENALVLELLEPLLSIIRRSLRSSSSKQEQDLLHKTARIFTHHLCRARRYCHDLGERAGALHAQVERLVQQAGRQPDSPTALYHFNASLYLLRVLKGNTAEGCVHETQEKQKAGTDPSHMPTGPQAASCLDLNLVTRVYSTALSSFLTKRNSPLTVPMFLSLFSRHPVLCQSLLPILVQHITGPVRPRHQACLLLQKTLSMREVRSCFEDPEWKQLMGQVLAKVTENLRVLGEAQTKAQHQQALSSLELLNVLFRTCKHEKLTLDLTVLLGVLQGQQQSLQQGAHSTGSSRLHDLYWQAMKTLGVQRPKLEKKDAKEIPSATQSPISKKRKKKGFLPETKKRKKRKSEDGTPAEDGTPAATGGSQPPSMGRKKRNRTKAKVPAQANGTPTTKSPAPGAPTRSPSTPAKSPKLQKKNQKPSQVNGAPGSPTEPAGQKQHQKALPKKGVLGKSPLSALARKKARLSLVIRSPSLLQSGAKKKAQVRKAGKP

Compound in a further assay: O=C(CCCCCCC(=O)Nc1ccccc1)NO [vorinostat]
Put shortly:
as §1

Compound in another assay: O=C(O)c1ccc2c(c1)nc(Nc1cccc(Cl)c1)c1ccncc12 [silmitasertib]
The procedure, abridged: as §1

Compound in assay [2]: O=C1NC(=O)C(c2cnc3ccccn23)=C1c1cn2c3c(cc(F)cc13)CN(C(=O)N1CCCCC1)CC2
Put shortly:
as §1

Compound in another assay: c1cn2cc(-c3ccc4cn[nH]c4c3)nc(Nc3ccc(N4CCOCC4)cc3)c2n1 [entospletinib]
Put shortly:
as §1

The list shows a part of the results.

As for MYL12B (UniProt O14950), the log2 fold change in assay [1] is inactive: -0.017; in the assay with vorinostat it was inactive: 0.122; in the assay with silmitasertib it was inactive: 0.014; in assay [2], inactive: 0.049; with entospletinib, inactive: -0.022.

Regarding MYO1C (UniProt O00159), the log2 fold change in assay [1] was inactive: -0.017; in the assay with vorinostat it was inactive: -0.171; in the assay with silmitasertib, inactive: 0.015; in assay [2], inactive: 0.11; in the assay with entospletinib, inactive: 0.033.

Consider NAP1L5 (UniProt Q96NT1), for which the log2 fold change was inactive: 0.023 in assay [1]; inactive: 0.059 in the assay with vorinostat; inactive: 0.033 with silmitasertib; inactive: -0.049 in assay [2]; inactive: 0.071 with entospletinib.

With NAT1 (UniProt P18440), the log2 fold change in assay [1] is inactive: -0.049; with vorinostat, inactive: 0.144; in the assay with silmitasertib, active: 0.275; in assay [2] it was inactive: 0.032; with entospletinib, inactive: -0.04.

In the case of NCK2 (UniProt O43639), the log2 fold change in assay [1] was inactive: -0.049; in the assay with vorinostat it was inactive: -0.036; in the assay with silmitasertib it was inactive: 0.005; in assay [2], inactive: -0.101; with entospletinib, inactive: 0.015.

On to MYO10 (UniProt Q9HD67), for which the log2 fold change in assay [1] is inactive: 0.401; in the assay with vorinostat, inactive: -0.038; in the assay with silmitasertib it was inactive: 0; in assay [2], inactive: 0.159.

Turning to MYO18B isoform 3 (UniProt Q8IUG5), the log2 fold change is inactive: -0.011 in assay [1]; inactive: -0.454 with vorinostat; inactive: 0.112 with silmitasertib; inactive: 0.064 in assay [2]; inactive: -0.033 with entospletinib.

As for NAB2 (UniProt Q15742), the log2 fold change in assay [1] was inactive: -0.005; in the assay with vorinostat it was inactive: -0.163; in the assay with silmitasertib it was inactive: 0.045; in assay [2] it was inactive: -0.063; with entospletinib, inactive: 0.017.

Regarding MYBBP1A isoform 2 (UniProt Q9BQG0), the log2 fold change in assay [1] is inactive: -0.034; with vorinostat it was inactive: -0.072; in the assay with silmitasertib, inactive: 0.041; in assay [2] it was inactive: 0.026; with entospletinib, inactive: 0.001.

These data come from the supplement of paper PMC10849652.
